According to patent publication US20030028009A1:

Target: integrin αvβ3, purified from human placenta (human)
Assay: ELISA, competition with biotinylated fibrinogen on immobilized αvβ3

| binding | Binder |
| --- | --- |
| binds | LM609 grafted antibody variant S102 Fab (Fab, V domains shown) VH: QVQLVESGGGVVQPGRSLRLSCAASGFTFSSYDMSWVRQAPGKGLEWVAKVSSGGGSTYYLDTVQGRFTISRDNSKNTLYLQMNSLRAEDTAVYYCARHNYGSFASWGQGTTVTVSS VL: EIVLTQSPATLSLSPGERATLSCQASQSISNHLHWYQQRPGQAPRLLIRYRSQSISGIPARFSGSGSGTDFTLTISSLEPEDFAVYYCQQSGSWPHTFGGGTKVEIK |
| binds | LM609 grafted antibody combinatorial variant clone C59 Fab (Fab, V domains shown) VH: QVQLVESGGGVVQPGRSLRLSCAASGFTFSSYDMSWVRQAPGKGLEWVAKVSSGGGSTYYPDTVQGRFTISRDNSKNTLYLQMNSLRAEDTAVYYCARHNYGSFADWGQGTTVTVSS VL: EIVLTQSPATLSLSPGERATLSCQASQSISNFLHWYQQRPGQAPRLLIRYRSQSISGIPARFSGSGSGTDFTLTISSLEPEDFAVYYCQQSGSWPHTFGGGTKVEIK |

Results are given in words; binding and its absence hold for the method and conditions named. Binding calls can cover weak binding; strength is not graded here.
